Measurements as given in patent publication US20040157296A1 (HESKA, published 2004).
No constants are given. Whether binding was seen depends on the method and setting. Some results given as binding are weak or reduced against the parent protein; the word gives no strength.

Target: T1, canine B7-1 protein expressed on L-pCMV-nCaB7-11385 recombinant L cells (PCaB7-1304) (canine)
T1 sequence: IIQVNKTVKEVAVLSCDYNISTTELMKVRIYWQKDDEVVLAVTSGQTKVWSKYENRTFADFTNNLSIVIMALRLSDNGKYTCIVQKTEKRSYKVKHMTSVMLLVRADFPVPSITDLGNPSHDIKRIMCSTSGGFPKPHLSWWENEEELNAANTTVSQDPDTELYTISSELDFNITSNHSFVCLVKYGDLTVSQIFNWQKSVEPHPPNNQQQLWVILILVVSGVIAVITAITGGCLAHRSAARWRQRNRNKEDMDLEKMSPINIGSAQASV
Experiment: flow cytometry on L cell transfectants

binding: binds
B1: Recombinant canine CTLA4 protein produced in Pichia (extracellular domain of the mature canine CTLA4 protein) (receptor)
chain: GMHVAQPAVVLASSRGVASFVCEYGSSGNAAEVRVTVLRQAGSQMTEVCAATYTVEDELAFLDDSTCTGTSSGNKVNLTIQGLRAMDTGLYICKVELMYPPPYYVGMGNGTQIYVIDPEPCPDSD
